Measured values: PubChem BioAssay AID434947 (Broad Institute, 2010)
In all, about 2,200 compounds went through this assay and about 15 (0.7%) were called active.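 Rule for the calls: active = fitted half-maximal concentration for loss of luminescence signal no more than a set limit of log units above the top tested concentration; inconclusive = flat fit with 30 to 70% signal loss, or invalid fit; inactive = half-maximal concentration above that set limit.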 The list shows a part of the results.

test: ADP-Glo luciferase signal interference – biochemical, luminescence, cell-free, homogeneous, artefact control for GSK3beta inhibitor project, dose response (AID 434947); settings: Cell-free ADP-Glo reagents, 5 uM ADP;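 note: kinase-free counter screen of ADP-Glo detection reagents for GSK3beta hits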

Row | SMILES | EC50
1 | O=C1NC(c2cccnc2)Nc2sc3c(c21)CCCC3 (stereo not given) | inactive: > 30 µM
2 | C[C@H]1CCCC(=O)CCC/C=C/c2cc(O)cc(O)c2C(=O)O1 | inactive: > 30 µM
3 | CC(C)=CCc1c(O)cc2c(c1O)C(=O)CC(c1ccc(O)cc1)O2 (stereo not given) | inactive: > 30 µM
4 | CC(C)n1c(O)c(C=NCc2cccnc2)c(=O)[nH]c1=S | inactive: > 30 µM
5 | Cc1cc2c(s1)NC(=O)CN=C2c1cccs1 | inactive: > 30 µM
6 | COc1cc(CN=Cc2c(O)n(C(C)(C)C)c(=O)[nH]c2=O)cc(OC)c1 | inactive: > 30 µM
7 | CCOc1ccccc1NC(=O)N1CCC2(CC1)OCCO2 | inactive: > 30 µM
8 | CN1CCN(c2ccc([N+](=O)[O-])cc2Cl)CC1 | inactive: > 30 µM
9 | Cn1ncnc2c(=O)n(C)c(=O)nc1-2 | inactive: > 30 µM
10 | C=CCN1C(=O)NC(=O)/C(=C/c2ccc(OCC(=O)Nc3ccc(C)cc3)cc2)C1=O | inactive: > 30 µM
11 | CCOC(=O)Cc1csc(NC(=O)c2c(O)c3ccccc3n(CCC(C)C)c2=O)n1 | inactive: > 30 µM
12 | O=C(O)CCn1cc(C=C2C(=O)NC(=S)NC2=O)c(-c2ccccc2)n1 | inactive: > 30 µM
13 | CCCCCCn1c(O)c(C=NCCCn2ccnc2)c(=O)[nH]c1=O | inactive: > 30 µM
14 | O=c1[nH]c(=O)n(Cc2ccc(F)cc2)c(O)c1C=NCCN1CCCCC1 | inactive: > 30 µM
15 | COc1ccc2c(c1)/C(=C/c1cnc[nH]1)C(=O)N2 | inactive: > 30 µM
16 | Nc1ncnc2c1ccn2[C@@H]1O[C@H](CO)[C@@H](O)[C@H]1O | inactive: > 30 µM
17 | Cc1ccc2c(c1)C1CN(C)CCC1N2C(=O)Nc1cccc(Cl)c1 (stereo not given) | inactive: > 30 µM
18 | COc1ccc(CC(=O)N2C[C@H]3C[C@@H](C2)c2cccc(=O)n2C3)cc1 | inactive: > 30 µM

3 compounds already listed, sorted by molar mass, low to high:
Row | SMILES | EC50
7 | CCOc1ccccc1NC(=O)N1CCC2(CC1)OCCO2 | inactive: > 30 µM
12 | O=C(O)CCn1cc(C=C2C(=O)NC(=S)NC2=O)c(-c2ccccc2)n1 | inactive: > 30 µM
10 | C=CCN1C(=O)NC(=O)/C(=C/c2ccc(OCC(=O)Nc3ccc(C)cc3)cc2)C1=O | inactive: > 30 µM

(next part)

Row | SMILES | EC50
19 | Clc1ccccc1CN1CCN(c2cccc3[nH]ccc23)CC1 | inactive: > 30 µM
20 | Cc1ccc(NC(=O)c2ccc(C)c(S(=O)(=O)N3CCCCC3)c2)nc1 | inactive: > 30 µM
21 | NC(=S)c1cn(C2OC(CO)C(O)C2O)c2ncnc(N)c12 (stereo not given) | inactive: > 30 µM
22 | CC(=O)Nc1ccccc1C(=O)OCc1ccc(C(=O)c2ccccc2)cc1 | inactive: > 30 µM
23 | CN1CCN(c2cc([N+](=O)[O-])ccc2Cl)CC1 | inactive: > 30 µM
24 | N#CCCn1cc(C(=O)O)c(-c2cccc([N+](=O)[O-])c2)n1 | inactive: > 30 µM
25 | CCc1cc2c(s1)NC(=O)CN=C2c1cccs1 | inactive: > 30 µM
26 | Cc1nonc1-c1nc(-c2nonc2N)n[nH]1 | inactive: > 30 µM
27 | O=c1[nH]c(=O)n(CCc2ccc(F)cc2)c(O)c1/C=N/N1CCCCC1 | inactive: > 30 µM
28 | O=C1Nc2ccccc2/C1=C/c1cnc[nH]1 | inactive: > 30 µM
29 | O=c1[nH]c2ccccc2c(=O)n1-c1ccc(Cl)cc1Cl | inactive: > 30 µM
30 | COc1cc2c(cc1O)C[C@H]1NCCc3cc4c(c-2c31)OCO4 | inactive: > 30 µM
31 | CC[n+]1c(/C=C/N(C)c2ccccc2)sc2ccc(Cl)cc21 | inactive: > 30 µM
32 | O=C1CN=C(c2ccccc2)c2c(sc3c2CCCC3)N1 | inactive: > 30 µM
33 | O=C1CN=C(c2cccs2)c2c(sc3c2CCCC3)N1 | inactive: > 30 µM
34 | O=c1[nH]c(=S)n(-c2ccccc2F)c(O)c1C=NCc1ccco1 | inactive: > 30 µM
35 | C[C@H]1[C@@H](c2ccccc2)O[C@@H](c2ccccc2Br)N1C | inactive: > 30 µM
